Laboratory results from paper PMC10163288.
Some of the results follow.

B1: il2ra_site1_3nfp_normal_mot_HHH_b1_07095_af2_000000161_0001_1_19_H_._HHH_b2_04861_0001_0000400022_0000001_0 (protein)
chain: SSSSSSSIEEFVRRAKELAEELGDPETAEELEELLREAEEKYDPELAEELIKLIAKLESSSSSSS
B2: il2ra_site1_2b5i_normal_mot_HHH_b1_06258_af2_000000112_0001_42_56_H_._HHH_b2_07344_af2_0001_0000100001_0000001_1_af2pred_0001_af2pred (protein)
chain: SSSSSSDEEADELWNEAARAYRKNPEEAKELLEQALEIAEEAGDEKAAKQIRHMLERLSSSSSSS
B3: il2ra_site2_2erj_sap_21_mot_HHH_b1_04496_000000138_0001_40_57_H_._HHH_b1_08401_0001_0000100001_0000001_0_0001 (protein)
chain: SSSTREAYELAAEASARLSRLARKGNEEEVERVSEEVIERLEEAGNPEAAKFIRKLTEALLSSSS
B4: il2ra_site2_3nfp_sap_18_mot_HHH_b1_05606_000000030_0001_23_39_H_._HHH_b1_04851_0001_0000700025_0000001_0_0001 (protein)
chain: SSSSNKEEYVRAALALLKLAAERKDDELFRRHFELIRLMIEDNNDEEAEELLEQLERLFNSSSSS
B5: il2ra_site2_2erj_sap_18_mot_678ce523d3521e26f84bf18760a59296_0001_000000113_0001_1_12_H_._HHH_b1_06677_0001_0000500024_0000001_0_0001 (protein)
chain: SSSSSHEEEVEELLRRAEKAYEEGDLHEVYRLLVEALAIASKNNDDELAQEVAEHLEKLGSSSSS
B6: il2ra_site2_2erj_sap_22_mot_HHH_b2_00907_000000126_0001_1_15_H_._HHH_b1_01434_af2_0001_0000500025_0000001_0_0001 (protein)
chain: SALEEAIEQAEKTNDPHLLVTIVRMAAWLAGDPELMKEAEELLERLKRGDPEAKEILEEIVEEIE
B7: il2ra_site1_3nfp_sap_17_mot_HHH_b1_07644_af2_000000110_0001_40_57_H_._HEEHE_2706_0001_0000400054_0000001_0_0001_af2pred_0001_af2pred (protein)
chain: SSSSTALETVEERAEKAFENNNKYQLEALYKLLREALERRGNPEAEEVLEKVEELLRELQSSSSS
B8: il2ra_site2_2erj_normal_mot_HHH_b1_05749_af2_000000010_0001_23_39_H_._HHH_b1_07967_0001_0001100051_0000001_1 (protein)
chain: SSSSDWLEELYRLAVELLRLSSRRDEEEFERVYREIERLVEEFNNESAREILEHIRRLFEGSSSS
B9: il2ra_site1_2b5i_sap_23_mot_80f7b4c21c45092860cd8bceb88a7fbb_0001_000000060_0001_1_12_H_._2104f07ea29b6e977b17d6fd601e7e07_0001_0001_0000200012_0000001_0_0001_a … (protein)
chain: SSSSNLLEEAFELMREANELARRGDDEEAKKVLEEAERLAREAGSRALLKSIESALEQLESSSSS
B10: il2ra_site2_2erj_normal_mot_90f6a21de4ed711cb697bb9f61d9c40c_0001_af2_000000135_0001_36_50_H_._HHH_b2_04009_0001_0000600038_0000001_0_af2pred_0001_1_af2pred_swa … (protein)
chain: SSSSDEEELEQLVERLAKELGASEEAKEEAEISAKTAKEAGASEEEIELFLRLLLKYLTHRSSSS
B11: il2ra_site2_2erj_normal_mot_HHH_b2_01204_af2_000000056_0001_19_34_H_._HHH_b2_03231_af2_0001_0000400032_0000001_1 (protein)
chain: SSSSSELEERVEELLEEARKAYEEGDLEEVYRLLVEALHLVSENNDDELQEEIAEFVEELSSSSS
B12: il2ra_site1_1z92_sap_16_mot_bc38a9f498cb1f18218c93d69bbf9b39_0001_af2_000000137_0001_15_32_H_._HHH_b2_03878_0001_0000300033_0000001_0_0001_af2pred_dldesign_0_af … (protein)
chain: SRVPLFLRAAAEIDPRVARNCRIIYETAKKLGAEDEEILRAIKKYVSRLDPALLERIEARVAELE
B13: il2ra_site1_3nfp_normal_mot_HHH_b2_07865_000000253_0001_20_36_H_._HEEHE_3312_0001_0000100025_0000001_0 (protein)
chain: DLQEDARHFSKMLARANNVDEVEVHQENGEITVTFSGNDERVERAAEAAEKLAKALGYPLEVETE
B14: il2ra_site2_2erj_sap_18_mot_HHH_b1_04373_af2_000000118_0001_18_33_H_._HHH_b1_00424_0001_0000600014_0000001_0_0001_af2pred_0001_1_af2pred_swapped (protein)
chain: TELYRILTEVAASIPDPKREEELFEELSRLLAEGNEKEAIELALEVAEELGNPELAELLRKLLEP
B15: il2ra_site1_3nfp_sap_14_mot_HHH_b2_06502_000000163_0001_42_55_H_._HHH_b2_00258_0001_0000200029_0000001_0_0001 (protein)
chain: SSSSDAAEWVEELAEKAFENNDERQLRILFRLLKRALEKIGDPKAREVLEEVEKLLRELQSSSSS
B16: il2ra_site2_3nfp_sap_18_mot_ems_p1-15H-GBL-16H-GBL-14H_0089_0001_0001_0001_af2_000000072_0001_19_33_H_._HHH_b1_08045_af2_0001_0000300008_0000001_0_0001_af2pred_ … (protein)
chain: SSSSDLEEEVRELLKEAQELLERGNPEEAEEVVRRAASIAAQAGDHELFMAASRLLEKIHRSSSS
B17: il2ra_site2_2erj_normal_mot_HHH_b1_00216_000000142_0001_43_57_H_._HHH_b1_07996_0001_0000300009_0000001_0_af2pred_0001_1_af2pred_swapped (protein)
chain: SSSSTREEKEALWALLRVRLAIEEGDPELARRSIELAEKRVEELGDEEVLEQLERLLRELSSSSS
B18: il2ra_site1_3nfp_sap_11_mot_16934e337390fad51c35c10e6cd388ee_0001_1_000000054_0001_52_65_H_._HHH_b1_03734_0001_0000100006_0000001_1_0001 (protein)
chain: DDARAVSKVVAEAAKQMGIPSVEVTVENGELEVTVEGNDEAAKAIKWAAENAAEWFRITVEVRHE
B19: il2ra_site1_3nfp_sap_21_mot_HHH_b1_02247_af2_000000083_0001_41_56_H_._HHH_b1_01686_af2_0001_0000600021_0000001_0_0001 (protein)
chain: SSSSSEVEERVERLLEEAKEVLEEGDWERAHEIVQEAMHVASRNANDELDRLILEWVRREASSSS

molecular target: il2ra, P01589; assay: yeast display titration

Apparent Kd, inactive:
B1 no binding seen
B2 no binding seen
B3 no binding seen
B4 no binding seen
B5 no binding seen
B6 no binding seen
B7 no binding seen
B8 no binding seen
B9 no binding seen
B10 no binding seen
B11 no binding seen
B12 no binding seen
B13 no binding seen
B14 no binding seen
B15 > 826 nM
B16 no binding seen
B17 no binding seen
B18 no binding seen
B19 no binding seen

For convenience, part of the list above:
Apparent Kd, inactive:
B1 no binding seen
B2 no binding seen
